Assay results published in PubChem BioAssay AID540276 (National Center for Advancing Translational Sciences (NCATS), 2011).
Hit rate of the full screen: of about 300,000 compounds, about 5,400 (1.8%) were called active. Inconclusive means that the source gave no clear call. Such entries were picked first, then a sample of the others. Calls follow the shape of the full dose curve; tested in HEK293 cells. Potencies beside an inconclusive call are fits to weak or partial responses and may not hold up.
Potency is read from the fitted curve at half-maximal effect.

Assay: qHTS for inhibitors of binding or entry into cells for Marburg Virus
Conditions: Marburg virus pseudotyped entry inhibition, cell reporter; series mostly up to 37.8 µM
For COc1cccc(N2CCN(CC(=O)Nc3ccc(SC(F)F)cc3)CC2)c1, the Potency was “inactive”.
With CC1CC(C)CN(CCCNC(=O)CN2C(=O)CSc3ccc(S(=O)(=O)N4CCCCC4)cc32)C1 (centres undefined) the Potency was inconclusive: 35.5 µM [inhibitor, single point].
With N#Cc1c(N)nc2c(c1-c1ccc3c(c1)OCO3)CCc1ccccc1-2 the Potency was inconclusive: 3.98 µM [inhibitor, full curve, poor fit].
For CC(C)CC(=O)N1CCN(S(C)(=O)=O)CC1, the Potency was inconclusive: 5.62 µM [activator, single point].
For COc1ccc(O[C@H]2C=C[C@@H](c3ccccc3)O[C@H]2COC(=O)CCC(C)=NOC[C@@H](O)COCc2ccco2)cc1, the Potency was “inactive”.
For COC(=O)c1ccc(NC(=O)CCc2c(C)nc3c(c2C)c(=O)n(C)c(=O)n3C)cc1, the Potency was “inactive”.
For O=C(CSc1ncccn1)NCc1ccc(F)cc1, the Potency was inconclusive: 29.1 µM [activator, single point].
For Cc1nn(CCOc2ccc(Br)cc2)c(C)c1[N+](=O)[O-], the Potency was inconclusive: 5.62 µM [activator, single point].
In the case of CCc1c(C#N)c(SCc2c(C)noc2C)nc2c1C(=O)CC(C)(C)C2, the Potency is reported as inconclusive: 11.6 µM [inhibitor, partial curve, poor fit].
In the case of CN(Cc1ccco1)C(=O)c1ccc(N2CCCC2=O)cc1, the Potency is reported as inconclusive: 12.6 µM [activator, single point].
In the case of O=C(O)CCn1cc(/C=C/C(=O)c2ccc(Cl)cc2)c(-c2ccc(Br)cc2)n1, the Potency is reported as “inactive”.
With COC(=O)Cn1cc(C(=O)C(C)(C)C)c2ccccc21 the Potency was “inactive”.
In the case of S=C(NCCc1ccccc1)NCc1cccc(Cl)c1, the Potency is reported as inconclusive: 2.51 µM [inhibitor, single point].
For COc1ccc2nc(SCC(=O)N3CCNC3=O)[nH]c2c1, the Potency was inconclusive: 2.06 µM [activator, partial curve, poor fit].
With CCOC(=O)c1ccc(NC(=O)CC2C(=O)N(c3cccc(OC)c3)C(=O)N2Cc2ccc(OC)cc2)cc1 (centres undefined) the Potency was inconclusive: 8.91 µM [inhibitor, partial curve, poor fit].
With CC1Cc2cc(S(=O)(=O)N3CCN(c4ccc(Cl)cc4)CC3)ccc2N1C(=O)C1CC1 (centres undefined) the Potency was inconclusive: 35.5 µM [inhibitor, single point].
With CCC(Oc1ccc(F)cc1)C(=O)Nc1nc(-c2ccc(F)cc2)ns1 (centres undefined) the Potency was inconclusive: 35.5 µM [inhibitor, single point].
For O=C(Cn1ccc2cc(S(=O)(=O)N3CCCC3)ccc21)NCCc1ccccc1, the Potency was inconclusive: 35.5 µM [inhibitor, single point].
For O=C(OCC(=O)N1CCN(C(=O)c2ccco2)CC1)c1cc(-c2cccc(Br)c2)nc2ccccc12, the Potency was inconclusive: 23.1 µM [inhibitor, single point].
In the case of Cc1ccc(S(=O)(=O)Nc2nc3ccccc3nc2NCc2ccco2)cc1, the Potency is reported as inconclusive: 29.1 µM [inhibitor, single point].
For Cc1[nH]c2ccccc2c1SCc1nnc(SCc2ccc(Cl)cc2)n1C, the Potency was inconclusive: 14.1 µM [inhibitor, partial curve, poor fit].
With Cc1cc(C)n2nc(SCC(=O)Nc3cccc(C(F)(F)F)c3)nc2n1 the Potency was “inactive”.
With COc1cccc(NS(=O)(=O)c2cc3c4c(c2)CCC(=O)N4CCC3)c1 the Potency was “inactive”.
In the case of Cc1ccc(C2NC(=O)c3ccccc3N2)s1 (centres undefined), the Potency is reported as “inactive”.
In the case of COc1ccc(Nc2ncc3c(n2)CC(c2ccccc2)CC3=O)cc1 (centres undefined), the Potency is reported as “inactive”.
In the case of O=C(Cc1csc(NC(=O)Nc2cccc(Cl)c2)n1)NCc1ccccn1, the Potency is reported as inconclusive: 35.5 µM [inhibitor, single point].
With O=[N+]([O-])c1ccc(N2CCN(Cc3ccc4c(c3)OCO4)CC2)nc1 the Potency was inconclusive: 3.55 µM [inhibitor, full curve].
With CC(C)Cc1ccc(CN2CCCC(NC(=O)CCN3CCOCC3)C2)cc1 (centres undefined) the Potency was inconclusive: 35.5 µM [inhibitor, single point].
In the case of COc1cc(/C=C(\C#N)c2nc3ccccc3[nH]2)ccc1OC(=O)c1ccco1, the Potency is reported as inconclusive: 6.31 µM [activator, single point].
For COC(=O)C1=C[C@@]2(c3ccc(OC)cc3[C@@H](OC)[C@@H]2C)[C@@H]2C=C[C@@H]1C2, the Potency was inconclusive: 0.0119 µM [activator, full curve, poor fit].
In the case of N=c1c(C(=O)NCc2ccco2)cc2c(=O)n3ccccc3nc2n1CC1CCCO1 (centres undefined), the Potency is reported as inconclusive: 2.51 µM [inhibitor, partial curve, poor fit].
With O=S(=O)(CCOc1ccccc1)c1nc2ccccc2[nH]1 the Potency was “inactive”.
In the case of COc1ccc(S(=O)(=O)NCc2ccc(C)cc2)cc1, the Potency is reported as inconclusive: 29.1 µM [activator, single point].
With Nc1ccc2c(c1)C(O)c1ccc(Cl)cc1-2 (centres undefined) the Potency was inconclusive: 0.891 µM [inhibitor, single point].
With CCOc1cc(NC(=S)NCCCN2CCOCC2)c(OCC)cc1NC(=O)c1ccc(OC)cc1 the Potency was inconclusive: 35.5 µM [inhibitor, single point].
For CCOC(=O)C(CC)(CC)C(=O)/C=C/c1cccc(Br)c1, the Potency was inconclusive: 2.24 µM [inhibitor, partial curve, poor fit].
With CN(C)S(=O)(=O)c1cccc(NC(=O)CSc2nc3ccccc3n2-c2ccccc2)c1 the Potency was inconclusive: 10 µM [inhibitor, partial curve, poor fit].
In the case of O=C(Nc1nnc(CC2=CCCCC2)s1)c1cccs1, the Potency is reported as “inactive”.
For COc1cccc(NC(=O)CN(C)C(=O)COc2ccc3ccccc3c2)c1, the Potency was inconclusive: 35.5 µM [activator, single point].
In the case of Cc1ccc(S(=O)(=O)N2CCOCC2)c2nsnc12, the Potency is reported as inconclusive: 0.0046 µM [inhibitor, full curve, poor fit].
For CSc1ncc(/C=C2/C(=O)NC(=O)N(c3ccc(Cl)cc3)C2=O)cn1, the Potency was “inactive”.
For O=C(Nc1ccc2oc(Cc3ccc(Cl)cc3)nc2c1)c1cccnc1, the Potency was inconclusive: 13 µM [inhibitor, partial curve, poor fit].
In the case of CC1SC(c2ccccc2Cl)NC1=O (centres undefined), the Potency is reported as “inactive”.
With COc1cc(NC(=O)C2CCC(=O)N2S(=O)(=O)c2ccc(C)cc2)cc(OC)c1 (centres undefined) the Potency was inconclusive: 7.94 µM [activator, partial curve].
With CS(=O)(=O)N1CCc2cc(C(=O)NCCc3ccccc3)ccc21 the Potency was inconclusive: 20 µM [activator, single point].
With CS(=O)(=O)c1ccc2nc(NC(=O)CCNC(=O)c3ccc(Cl)cc3)sc2c1 the Potency was “inactive”.
With COC(=O)C1=C(C)NC(C)=C(C(=O)OC)C1c1ccc(-c2cc(Cl)ccc2Cl)o1 the Potency was “inactive”.
In the case of CCc1nnc(NC(=O)c2c(OC)cccc2OC)s1, the Potency is reported as “inactive”.
With CN1C(=O)C(Cc2ccsc2)C(=O)N(C)C1=O the Potency was inconclusive: 3.16 µM [inhibitor, partial curve].
In the case of CN1CCN(c2ccc(-c3cccc(NC(=O)COc4ccc(Cl)cc4)c3)nn2)CC1, the Potency is reported as inconclusive: 15.8 µM [inhibitor, single point].
For CCCn1c(/C=C/c2ccco2)nc2ccccc21, the Potency was “inactive”.
For Cc1ccc(Sc2c(C(=O)Nc3ccc(F)cc3F)c(C(F)(F)F)nn2C)cc1, the Potency was inconclusive: 1.16 µM [inhibitor, single point].
For Cc1cc(Cl)ccc1NC(=S)N1CCN(C(=O)C2CCCO2)CC1 (centres undefined), the Potency was inconclusive: 1 µM [activator, single point].
With COc1ccc(C(=O)NCCn2cc(SCC(=O)NCCc3ccc(OC)c(OC)c3)c3ccccc32)cc1 the Potency was “inactive”.
With CC(C)CCn1c(SCC(=O)NC2CCS(=O)(=O)C2)nc2cc(Cl)ccc2c1=O (centres undefined) the Potency was “inactive”.
For O=C(c1cccnc1)N1CCCC(Nc2ccc(F)cc2)C1 (centres undefined), the Potency was “inactive”.
For Cc1ccc(NC(=O)Cn2c(=O)c3cc(Cl)ccc3n3nncc23)cc1, the Potency was inconclusive: 0.501 µM [inhibitor, full curve, poor fit].
With Cc1cccc(CS(=O)(=O)Cc2ccc(C(=O)O)o2)c1 the Potency was “inactive”.
For O=C(Nc1nc(-c2cc3ccccc3o2)cs1)c1ccc(S(=O)(=O)N2CCCC2)cc1, the Potency was inconclusive: 4.61 µM [inhibitor, full curve, poor fit].
For Cc1ccccc1Nc1nc(N)nc(COC(=O)CCC(=O)c2ccc(F)cc2)n1, the Potency was inconclusive: 11.2 µM [inhibitor, partial curve, poor fit].
With COc1ccc(S(=O)(=O)N2CCCCCC2)cc1NC(=O)c1ccccc1 the Potency was inconclusive: 31.6 µM [activator, single point].
For CCn1c(CSc2nc(C)cc(C)n2)nnc1SCC(=O)Nc1cccc2ccccc12, the Potency was inconclusive: 1.64 µM [inhibitor, full curve, poor fit].
For CCCN=C1CC(C)(C)CC(=O)/C1=C(/O)CCC, the Potency was inconclusive: 6.31 µM [inhibitor, single point].
With CN1C(=O)[C@H](Cc2ccc([N+](=O)[O-])cc2)NC1=S the Potency was “inactive”.
In the case of O=C(O)CCc1ccc(-c2cccs2)n1NC(=O)c1ccccc1Br, the Potency is reported as inconclusive: 13 µM [activator, single point].
For CSc1ccc(CCNC(=O)CCCn2nc(C)c3sc4ccccc4c3c2=O)cc1, the Potency was “inactive”.
With Cc1ccc(C(=O)NNC(=O)C2CCN(Cc3ccccc3)CC2)cc1 the Potency was inconclusive: 35.5 µM [inhibitor, single point].
For CC(C)Cn1c(N)c(C(=O)CSc2ncccn2)c(=O)n(C)c1=O, the Potency was “inactive”.
For O=C(Nc1cccc(F)c1)Nc1cccc(Cl)c1, the Potency was inconclusive: 20 µM [inhibitor, single point].
